Measurements from PubChem BioAssay AID540276 (National Center for Advancing Translational Sciences (NCATS), 2011).
The whole screen tested about 300,000 compounds, of which about 5,400 (1.8%) were called active. This list was built around the results that the source calls inconclusive (neither active nor inactive); the mix of calls is not that of the screen. Calls follow the shape of the full dose curve; tested in HEK293 cells. Potencies of inconclusive entries are doubtful fits and often do not repeat.

experiment: qHTS for inhibitors of binding or entry into cells for Marburg Virus; details: Marburg virus pseudotyped entry inhibition, cell reporter; activity change, negative = inhibition: at 37.8 µM (top of the series) unless noted
% is scaled to controls: 0 for no effect and ±100 for the full control effect; potency is read from the fitted curve at half-maximal effect.

Compound	Potency	activity change, negative = inhibition
CCCCN1C(=O)C(O)(CC(=O)c2ccco2)c2cc(Br)ccc21 (configuration not stated)	inconclusive: 20.6 µM [inhibitor, single point]	–
COc1cccc(/C=N/n2c(COc3ccccc3)n[nH]c2=S)c1	inconclusive: 35.5 µM [inhibitor, single point]	–
CCCOc1cccc(C2c3c(-c4ccccc4O)n[nH]c3C(=O)N2Cc2ccco2)c1 (configuration not stated)	inconclusive: 8.91 µM [inhibitor, partial curve, poor fit]	–
CS(=O)(=O)Nc1cccc(-c2cnc3ccccc3n2)c1	inconclusive: 3.16 µM [activator, single point]	–
Cc1ccc2[nH]cc(/C=C/c3cc[n+](C)cc3)c2c1	active: 5.01 µM	–
Cc1ccnc(NC(=O)c2ccc3c(c2)OCO3)c1	inconclusive: 2.51 µM [inhibitor, full curve, poor fit]	–
CCOc1ccc(/C=N/NC(=O)C(OC)c2ccccc2)cc1 (configuration not stated)	inconclusive: 2.82 µM [activator, full curve]	–
Cc1c(C(=O)O)sc(S(=O)(=O)N2CCN(C(=O)Cc3ccc(F)cc3)CC2)c1C(=O)O	inconclusive: 0.316 µM [activator, partial curve, poor fit]	–
O=C(Nc1ccc([N+](=O)[O-])cc1)N1CCCCCC1	inconclusive: 11.2 µM [activator, partial curve, poor fit]	–
COc1ccc(-c2nnc(SCC(=O)NC(=O)NCc3ccco3)o2)cc1	inconclusive: 2.31 µM [inhibitor, partial curve]	–
CCn1nc(NC(=O)c2ccco2)c2cc3ccc(C)cc3nc21	inconclusive: 7.08 µM [inhibitor, partial curve]	–
C=CCNC(=O)c1ccc(N(CC=C)S(C)(=O)=O)cc1	–	inactive: 0.848% [at 46.1 µM]
O=C(Nc1ccccc1C(=O)N1CCN(c2cccc(Cl)c2)CC1)C1=CSCCO1	inconclusive: 7.08 µM [inhibitor, partial curve, poor fit]	–
CCCS(=O)(=O)N1CCCC(C(=O)NCCc2ccc(OC)c(OC)c2)C1 (configuration not stated)	inconclusive: 3.55 µM [inhibitor, partial curve, poor fit]	–
COc1ccc(C(=O)C2CCN(C(=O)c3ccc(C)cc3)CC2)cc1	inconclusive: 0.259 µM [inhibitor, full curve, poor fit]	–
COc1ccccc1NC(C)C(=O)Nc1ccc(C(C)=O)cc1 (configuration not stated)	inconclusive: 2.82 µM [activator, partial curve, poor fit]	–
COc1ccc(N(C(=O)c2ccccc2C)S(=O)(=O)c2cccs2)cc1	inconclusive: 1.3 µM [inhibitor, full curve]	–
O=S(=O)(N1CCCCC1)N1CCN(CC(O)COc2ccc3cc(Br)ccc3c2)CC1 (configuration not stated)	–	inactive: -21.1%
CCN=C1SC(CC(=O)NC2CCCCC2)C(=O)N1CC (configuration not stated)	inconclusive: 29.1 µM [activator, single point]	–
Cc1cc(=O)n2[nH]c(C)c(-c3ccc(Cl)cc3)c2n1	inconclusive: 25.9 µM [inhibitor, partial curve, poor fit]	–
COc1cccc(/C=C2\SC(=S)N(CCC(=O)NNC(=O)c3ccccc3OC)C2=O)c1	inconclusive: 6.31 µM [inhibitor, single point]	–

A portion taken from the entries so far, as a working copy:
Compound	Potency	activity change, negative = inhibition
CCCS(=O)(=O)N1CCCC(C(=O)NCCc2ccc(OC)c(OC)c2)C1 (configuration not stated)	inconclusive: 3.55 µM [inhibitor, partial curve, poor fit]	–
COc1ccc(C(=O)C2CCN(C(=O)c3ccc(C)cc3)CC2)cc1	inconclusive: 0.259 µM [inhibitor, full curve, poor fit]	–

Remaining list, next part:

Compound	Potency	activity change, negative = inhibition
CCN(CC)CCCn1c(=S)[nH]c2cc(OC)c(OC)cc2c1=O	inconclusive: 29.1 µM [inhibitor, single point]	–
COc1cccc(/C=N/NC(=O)c2cnccn2)c1	inconclusive: 14.1 µM [activator, single point]	–
Cc1csc(NC(=O)Cn2nc(C)c([N+](=O)[O-])c2C)n1	inconclusive: 1.26 µM [inhibitor, partial curve, poor fit]	–
CC(C)(C)c1ccc(-n2ncc3c2CCCC3NC(=O)CCN2CCCCC2=O)cc1 (configuration not stated)	–	inactive: -19.1%
Cc1ccc(-c2nnn(CC(=O)N(c3ccccc3)C(C(=O)NCC3CCCO3)c3ccc(F)cc3)n2)o1 (configuration not stated)	inconclusive: 5.62 µM [inhibitor, single point]	–
COc1ccc(-n2ncc(C(C)NS(=O)(=O)c3ccc(C)s3)c2C)cc1 (configuration not stated)	–	inactive: -28.6%
NS(=O)(=O)c1ccc(CCNC(=O)CNC(=O)c2ccc(F)cc2)cc1	–	inactive: -0.522%
Cc1ccc2c(c1)N(CCC(=O)NC(C)C)C(=O)CO2	inconclusive: 3.98 µM [inhibitor, single point]	–
COc1ccc(-c2csc(NC(=O)CSCc3c(C)noc3C)n2)cc1OC	inconclusive: 35.5 µM [inhibitor, single point]	–
Cc1ccc(-c2nnc3ccc(SCC(=O)N4CCCc5ccccc54)nn23)cc1	inconclusive: 7.94 µM [inhibitor, partial curve, poor fit]	–
CCCCCCCCC(=O)N/N=C(\C)c1ccc(O)cc1O	inconclusive: 35.5 µM [inhibitor, single point]	–
CCCCN(CC)CCCNC(=O)c1cc2c(=O)n(CC)c3ccccc3c2s1	active: 11.2 µM	–
O=C(NC1CCN(Cc2ccc(Cl)c(Cl)c2)CC1)c1ccccc1	inconclusive: 12.6 µM [inhibitor, partial curve, poor fit]	–
O=C(Cn1nc(-c2ccc(Cl)cc2)c2ccccc2c1=O)Nc1cccc(C(F)(F)F)c1	inconclusive: 7.94 µM [inhibitor, partial curve, poor fit]	–
COC(=O)c1c(NC(=O)/C=C/c2ccco2)sc2c1CCC2	inconclusive: 23.1 µM [activator, single point]	–
COc1ccccc1CN1CCNC(=O)C1CC(=O)O (configuration not stated)	–	inactive: -0.517%
CCN(CC)c1ccc(NC(=O)c2ccccc2OCC(=O)OC)cc1	–	inactive: -1.39%
O=C(CSc1nnc(-c2cccs2)o1)N1CCOCC1	inactive	–
CC(=O)c1cccc(NC(=S)N2CCN(CCN3C(=O)c4cccc5cccc(c45)C3=O)CC2)c1	inconclusive: 3.16 µM [inhibitor, partial curve, poor fit]	–
CC(Oc1ccc(Cl)cc1)c1ccn[nH]1 (configuration not stated)	inconclusive: 12.6 µM [inhibitor, partial curve, poor fit]	–
Fc1ccc(C2c3[nH]c4ccccc4c3CCN2Cc2ccoc2)cc1 (configuration not stated)	inconclusive: 12.6 µM [inhibitor, partial curve, poor fit]	–
